Primary screen of a compound library

The values are deposited in ChEMBL (CHEMBL3988442, “University of Dundee, Small-Polar-MMV Screening Library” (2021)).

Mtb growth Cornell: 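Whole-cell assay for inhibitors of Mycobacterium tuberculosis growth, labelled Cornell in the record; the read-out is not stated. The concentration is filed as 10 mM, unlikely as a test dose, so the dose is not known. Higher means stronger inhibition (inferred from two other growth screens of the library). Size under these conditions: about 53,000 compounds, about 900 of them at 50% or above in at least one test.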
Mtb heat-shock: 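Assay on Mycobacterium tuberculosis, filed only as a heat shock assay from Cornell; the read-out is not stated. The concentration is filed as 10 mM, unlikely as a test dose, so the dose is not known. The record gives no direction; compounds that gave an IC50 in retests scored well above the rest, so higher reads as stronger inhibition. About 69,000 compounds were tested under these conditions; 1.4% (about 930) showed 50% or more at least once.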

Each number is a percent effect as filed.
The controls that fix the scale are not given in the record; negative values are as filed.
Compounds were drawn at random from those tested, without regard to their results.
A dash means the value is not listed here; it may have been measured.

Compound	Mtb growth Cornell	Mtb heat-shock
Cc1cc(C(=O)NC2CCCN(c3ccccc3)C2=O)on1 (stereo not drawn)	-0.4978%	9.743%
Cn1cccc1C(=O)N1CCc2onc(Cn3cccn3)c2C1	-27.21%	-2.933%
COc1cccc(CCC(=O)Nc2cnc3c(c2)c(C)nn3C)c1OC	-6.137%	4.547%
CCCNS(=O)(=O)c1ccc2[nH]c(=O)cc(C)c2c1	-1.408%	8.068%
COc1c(C)cnc(CN2CCCCC2Cn2nc(C)nc2C)c1C (stereo not drawn)	-29.68%	3.372%
CCn1ccnc1C1CCN(Cc2c(F)cccc2F)CC1	24.35%	-26.14%
c1ccc2nc(N3CCCC(Cn4cncn4)C3)cnc2c1 (stereo not drawn)	-	-12.52%
CNC(=O)c1cc(NC(=O)NC(C)CCc2cccn2C)ccc1F (stereo not drawn)	-1.57%	14.23%
O=C(O)C(F)(F)F.O=C(O)C(F)(F)F.c1ccc(N2CCC3(COCCN(c4ncccn4)C3)C2)nc1 (stereo not drawn)	17.76%	3.163%
Cc1cc(N2CCN(Cc3ccccc3)CC(O)C2)nc(N)n1 (stereo not drawn)	-	-3.611%
CCc1cnc(N2CCc3ncnc(N4CCN(C)CC4)c3CC2)nc1.O=C(O)C(F)(F)F	14.5%	0.1703%
Cn1cncc1-c1nnc([C@H]2CCN(Cc3ccc(CO)o3)C2)o1	-19.42%	-35.62%
Cc1ccc(F)cc1S(=O)(=O)Nc1cnc(N2CCCC2)nc1	13.98%	-4.322%
CCC(CC)c1nnc(NC(=O)NC(C)Cn2cccn2)s1 (stereo not drawn)	-	-21.72%
Cn1c(-c2ccccc2Cl)nc2cc(C(=O)NCC3(CO)CC3)cnc21	-	22.43%
CCN(CC)C(=O)C1CCCN(c2ncnc3oc(C)nc23)C1 (stereo not drawn)	0.786%	-0.5346%
Cn1cnnc1C1CCCN(C(=O)c2cc(-c3ccccc3)on2)C1 (stereo not drawn)	-3.278%	14.38%
[H][C@@]12CN(Cc3nccs3)C[C@@H](C(=O)NC(C)C)[C@]1([H])CCO2	-53.39%	-33.11%
Cc1cc(NC(=O)CN2CCN(c3nc(C)cs3)C(C)C2)on1 (stereo not drawn)	-	11.35%
CC(=O)NCC[C@H]1CC(C)(C)Oc2ccccc21	0.7528%	-2.915%
CN(C)C1COC2(CCN(Cc3ccc4c(c3)OCO4)CC2)C1.O=C(O)C(F)(F)F.O=C(O)C(F)(F)F (stereo not drawn)	12.95%	-14.47%
N#Cc1ccc(CNc2cccc(C(=O)N3CCOCC3)c2)cc1	0.01883%	3.346%
COc1cccc(OC)c1C(=O)N1C[C@@H](CN(C)C)[C@@H](CO)C1	-18.41%	4.915%
CN(C(=O)c1ccc(C2CCCO2)s1)C1CCS(=O)(=O)CC1 (stereo not drawn)	-	-1.903%
CN1CCN(C(=O)c2n[nH]c3c2CN(C2CCOCC2)CC3)CC1.O=C(O)C(F)(F)F.O=C(O)C(F)(F)F.O=C(O)C(F)(F)F	15.16%	-1.766%
CCn1ccc(C(=O)N2CCCC2c2nnc(-c3scnc3C)o2)n1 (stereo not drawn)	4.13%	-2.34%
CCc1ncc2c(n1)CN(CC(=O)Nc1cc(C)on1)CC2	-16.66%	-19.18%
Cc1nc(C)c(CC(=O)NCc2ccccc2F)s1	-27.97%	6.165%
O=C(O)C(F)(F)F.[H][C@@]12CCN(C3CCCCC3)C[C@]1(C(=O)N1CCOCC1)CCO2	-10.99%	-34.43%
Cc1cc(C)n(CC2CCCN2Cc2ncc(C(C)(C)C)o2)n1 (stereo not drawn)	1.013%	52.86%
Cc1ccc(NC(=O)c2cc(S(=O)(=O)N3CCCCC3)c[nH]2)cc1F	10.65%	13.85%
CNc1cc(CNC(=O)c2cccnc2)nc(-c2ccncc2)n1	-	-3.662%
Cc1ccc(C(CNCc2cccnc2)N2CCOCC2)s1 (stereo not drawn)	18.89%	-2.465%
O=C(c1ccc(-c2ccoc2)nc1)N1CCCN(C2CCCCC2)CC1	4.907%	11.21%
COc1ccc(-c2noc(C(N)CCSC)n2)cc1 (stereo not drawn)	3.937%	-7.483%
CCc1nnc(N2C[C@@H](CN(C)CCO)[C@@H](CO)C2)s1	9.903%	5.017%
COCCn1cnnc1CN(C)c1nc(N)ncc1C	8.586%	-19.34%
c1cnn(CC2CN(Cc3ccc(-n4ccnc4)cc3)CCO2)c1 (stereo not drawn)	1.584%	-7.331%
CCOCCC(=O)Nc1cccc(Cl)c1C(N)=O	-54.39%	9.377%
O=C(O)C(F)(F)F.O=C(O)C(F)(F)F.[H][C@]12C[C@H](CN(C)C)O[C@@]1([H])CN(Cc1ccoc1)C2	0.303%	-0.1344%
Cc1cnc(N2CCC3(CC2)CC(NS(C)(=O)=O)CO3)nc1 (stereo not drawn)	23.7%	1.885%
COCCN(C)C(C)c1cccc(S(N)(=O)=O)c1 (stereo not drawn)	-	-11.48%
NC(=O)c1ccccc1NC(=O)CCN1CCN(c2ccccc2)CC1	28.82%	-37.52%
[H][C@@]12CCCCN(C)[C@]1([H])[C@@H](c1ccccc1)CCN2C(=O)c1ccncc1	0.1292%	0.4238%
Cc1cc(C)n(C2CCCN(C(=O)CCCNc3ncccn3)C2)n1 (stereo not drawn)	-	-18.43%
Cc1cc(CN[C@@H](Cc2ccccc2)C(N)=O)c(C)s1	7.097%	-14.4%
CC(NC(=O)N1CCC1)c1ccc(S(N)(=O)=O)cc1 (stereo not drawn)	-	12.87%
CCc1cccc(OCC(=O)N2CCCC(n3cncn3)C2)c1 (stereo not drawn)	9.107%	26.94%
c1ccc(-c2noc(CNC3CCCN(c4cccnn4)C3)n2)nc1 (stereo not drawn)	-	-11.25%
CC(C)CN1C(=O)C2(CCCC2)NC1c1c[nH]nc1-c1cccnc1 (stereo not drawn)	-15.27%	-22.51%
Cc1cc(C)c(C(=O)N2CCN(c3ncccc3C#N)CC2)c(=O)[nH]1	-	-2.504%
COC(=O)c1cccn1C1CCN(C(=O)c2ccc(C)cc2O)CC1	5.938%	-6.226%

For reference, 4 entries once more:

Compound	Mtb growth Cornell	Mtb heat-shock
CCOCCC(=O)Nc1cccc(Cl)c1C(N)=O	-54.39%	9.377%
CCn1ccnc1C1CCN(Cc2c(F)cccc2F)CC1	24.35%	-26.14%
CCC(CC)c1nnc(NC(=O)NC(C)Cn2cccn2)s1 (stereo not drawn)	-	-21.72%
O=C(O)C(F)(F)F.O=C(O)C(F)(F)F.c1ccc(N2CCC3(COCCN(c4ncccn4)C3)C2)nc1 (stereo not drawn)	17.76%	3.163%